At least one peptide structure holds a part that was inferred or is arguable (an end, a ring closure or a residue). Where no end group is shown, it is not given here.
Test system: extinction of conditioned flight behaviour
Test: inhibition (retardation) of the extinction of conditioned flight behaviour; psychopharmacological activity
Type: in vivo
Details: Table I; 4-10 ACTH = 1
Source text: This invention relates to the field of pharmaceutical compounds, and to the sub-field of psychopharmacologically active compounds. The compounds in question show an inhibition of the extinction of conditioned flight behaviour, as a result of which they are eminently suitable for the treatment of mental disorders in which a stimulation of the cerebral function is desired, such as in case of senility. The invention further relates to pharmaceutical compositions containing these peptide compounds or their derivatives where the latter are an active constituent.

With “MEHFRW [4-9 ACTH, Met-Glu-His-Phe-Arg-Trp]” the “Potency Ratio with Respect to 4-10 ACTH” value was 1.
